Results from one PubChem assay

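Vaccinia-infected cells with a two-color viral stage reporter; Venus fluorescence read on a plate reader; the cell line is not named here; timing not stated here.
The test concentration is not given here.
Percent change in Venus reporter signal; lower (more negative) values mean stronger inhibition of that viral stage.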

Values are in %.
How 0% and 100% were set is not given here.
Common to all entries: measured here: Venus reporter, other viral stage.
Part of the compounds only, not a random draw; the main read-out is not listed here.

* C[C@@H]1CN([C@H](C)CO)C(=O)c2cc(/C=C/c3ccccc3)cnc2O[C@H]1CN(C)C(=O)c1ccc2c(c1)OCO2 | activity change (Venus) -27.98%
* CC(C)NC(=O)N1[C@H](CO)[C@@H](c2ccc(C#CC3CCCCC3)cc2)[C@@H]1C#N | activity change (Venus) -45.85%
* C[C@@H]1CN([C@H](C)CO)C(=O)c2c(c3ccccc3n2C)-c2ccccc2CO[C@H]1CN(C)C(=O)[C@H](Cc1ccccc1)N(C)C | activity change (Venus) -44.27%
* C[C@H](CO)N1C[C@H](C)[C@@H](CN(C)Cc2ccc(C(F)(F)F)cc2)Oc2ccc(NC(=O)Nc3ccc(F)cc3)cc2CC1=O | activity change (Venus) -43.47%
* Cc1ccccc1-c1ccc2c(c1)O[C@H](CN(C)C(=O)Nc1ccc(F)cc1)[C@H](C)CN([C@H](C)CO)S2(=O)=O | activity change (Venus) -55.14%
* C[C@@H]1CN([C@H](C)CO)C(=O)c2c(c3ccccc3n2C)-c2ccccc2CO[C@@H]1CN(C)C(=O)NC1CCCCC1 | activity change (Venus) -28.81%
* C[C@H]1CCCCO[C@H](CN(C)C(=O)NC2CCCCC2)[C@@H](C)CN([C@@H](C)CO)C(=O)c2cc(NC(=O)C3CCCCC3)ccc2O1 | activity change (Venus) -52.35%
* CC(C)NC(=O)N1[C@H](C#N)[C@@H](c2ccc(-c3ccc(F)cc3)cc2)[C@@H]1CO | activity change (Venus) -27.59%
* COc1ccccc1-c1ccc([C@H]2[C@H]3CN(S(=O)(=O)c4cn(C)cn4)CCCCN3[C@H]2CO)cc1 | activity change (Venus) -60.48%
* C[C@H](CO)N1C[C@H](C)[C@H](CN(C)C(=O)Nc2cccc3ccccc23)Oc2ncc(-c3cc4ccccc4o3)cc2C1=O | activity change (Venus) -33.25%
* COc1ccc(NC(=O)Nc2ccc3c(c2)C(=O)N([C@H](C)CO)C[C@@H](C)[C@H](CN(C)C(=O)NC2CCCCC2)OCCCC[C@@H](C)O3)cc1 | activity change (Venus) -37.62%
* COc1ccc(C#Cc2ccc3c(c2)O[C@H](CN(C)C)[C@H](C)CN([C@@H](C)CO)S3(=O)=O)cc1 | activity change (Venus) -24.4%
* COc1cccc(C#Cc2ccc([C@H]3[C@@H](C#N)N(C(=O)C4CCC4)[C@@H]3CO)cc2)c1 | activity change (Venus) -21.79%
* CC(C)NC(=O)Nc1ccc2c(c1)CC(=O)N([C@@H](C)CO)C[C@H](C)[C@H](CN(C)Cc1ccc(Cl)c(Cl)c1)O2 | activity change (Venus) -46.17%
* C[C@@H]1CN([C@@H](C)CO)C(=O)Cc2cc(NC(=O)Cc3cn(C)c4ccccc34)ccc2O[C@@H]1CN(C)Cc1ccc(-c2ccccc2)cc1 | activity change (Venus) -24.93%
* C[C@@H]1CCCCO[C@H](CN(C)Cc2ccc(C(F)(F)F)cc2)[C@@H](C)CN([C@@H](C)CO)C(=O)c2cc(NC(=O)NC3CCCCC3)ccc2O1 | activity change (Venus) -24.05%
* C[C@@H]1CN([C@H](C)CO)S(=O)(=O)c2ccc(C#CC3CCCCC3)cc2O[C@H]1CN(C)Cc1cccnc1 | activity change (Venus) -49.76%
* Cc1ccccc1-c1ccc([C@H]2[C@H]3CN(C(=O)Nc4cccc(F)c4)CCCCN3[C@H]2CO)cc1 | activity change (Venus) -38.99%
* C[C@H](CO)N1C[C@H](C)[C@@H](CN(C)Cc2ccc(C(F)(F)F)cc2)OCCCC[C@H](C)Oc2ccc(NS(=O)(=O)c3cccs3)cc2C1=O | activity change (Venus) -48.84%
* COc1ccc(CN(C)C[C@H]2OCCCC[C@@H](C)Oc3ccc(NC(=O)Nc4ccc5c(c4)OCO5)cc3C(=O)N([C@@H](C)CO)C[C@H]2C)cc1 | activity change (Venus) -49.71%
* N#Cc1ccc(-c2ccc([C@H]3[C@H]4CN(S(=O)(=O)c5ccccc5)CCCCN4[C@H]3CO)cc2)cc1 | activity change (Venus) -24.34%
* O=C(C1CCCC1)N1CCCCN2[C@H](CO)[C@@H](c3ccc(-c4cccc(F)c4)cc3)[C@H]2C1 | activity change (Venus) -40.78%

Some entries from above, unchanged:

Compound,activity change (Venus) (%)
COc1cccc(C#Cc2ccc([C@H]3[C@@H](C#N)N(C(=O)C4CCC4)[C@@H]3CO)cc2)c1,-21.79
COc1ccccc1-c1ccc([C@H]2[C@H]3CN(S(=O)(=O)c4cn(C)cn4)CCCCN3[C@H]2CO)cc1,-60.48
CC(C)NC(=O)N1[C@H](CO)[C@@H](c2ccc(C#CC3CCCCC3)cc2)[C@@H]1C#N,-45.85

From PubChem BioAssay record AID1053133 (Broad Institute, 2014).